# The supplement of paper PMC8728848
# This is one part of the list.
# B1: Mermaid2 (Stilbonema majum) (protein)
# chain: MGSSHHHHHHSSGLVPRGSHMAASGWLRSPQGTVVKLYRRSLSWSKADEFCKDVDGRLVVDRTADMHLFLIKNVLKEKKSRVWVGLRRTAPHSRTWIWSDGTRQNEDDLNTNLWLRDEPNDAAGEEECALFMYSPWEKAWGLNDYLCRGGCRSYQFICEKGIR
# Experiments:
# Test in all cases: glycan array binding signal (z-score within array); higher = stronger binding
# Settings in all cases: glycan notation: IUPAC condensed, linker removed
# [1] = molecular target: Gal(b1-3)GlcNAc(b1-6)[Gal(b1-3)]GalNAc
# In short: (§1)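 Columns mapping to the same glycan were averaged after glycan names were converted to IUPAC-condensed notation. The data come from 3228 arrays in the Consortium for Functional Glycomics database, limited to those with an available protein sequence. Binding is reported as a within-array Z-score averaged across arrays of one protein sequence and across linkers.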
# Gal(b1-3)GlcNAc6S = molecular target: Gal(b1-3)GlcNAc6S
# In short: as §1
# [2] = molecular target: Gal(b1-3)[Fuc(a1-4)]GlcNAc
# In short: as §1
# [3] = molecular target: Gal(b1-3)[Fuc(a1-4)]GlcNAc(b1-2)Man
# In short: as §1
# [4] = molecular target: Gal(b1-3)[Fuc(a1-4)]GlcNAc(b1-2)Man(a1-3)[Gal(b1-3)[Fuc(a1-4)]GlcNAc(b1-2)Man(a1-6)]Man(b1-4)GlcNAc(b1-4)[Fuc(a1-6)]GlcNAc
# In short: as §1
# [5] = molecular target: Gal(b1-3)[Fuc(a1-4)]GlcNAc(b1-3)Gal(b1-3)[Fuc(a1-4)]GlcNAc
# In short: as §1
# [6] = molecular target: Gal(b1-3)[Fuc(a1-4)]GlcNAc(b1-3)Gal(b1-4)[Fuc(a1-3)]GlcNAc
# In short: as §1
# [7] = molecular target: Gal(b1-3)[Fuc(a1-4)]GlcNAc(b1-6)GalNAc
# In short: as §1
# [8] = molecular target: Gal(b1-3)[GlcNAc(b1-6)]GalNAc
# In short: as §1
# [9] = molecular target: Gal(b1-3)[Neu5Ac(a2-6)]GalNAc
# In short: as §1
# [10] = molecular target: Gal(b1-3)[Neu5Ac(a2-6)]GlcNAc(b1-4)Gal(b1-4)Glc
# In short: as §1
# [11] = molecular target: Gal(b1-3)[Neu5Ac(b2-6)]GalNAc
# In short: as §1
# Gal(b1-4)Gal = molecular target: Gal(b1-4)Gal
# In short: as §1
# [12] = molecular target: Gal(b1-4)GalNAc(a1-3)[Fuc(a1-2)]Gal(b1-4)GlcNAc
# In short: as §1
# [13] = molecular target: Gal(b1-4)GalNAc(b1-3)[Fuc(a1-2)]Gal(b1-4)GlcNAc
# In short: as §1
# Gal(b1-4)Glc = molecular target: Gal(b1-4)Glc
# In short: as §1
# Gal(b1-4)Glc6S = molecular target: Gal(b1-4)Glc6S
# In short: as §1
# Gal(b1-4)GlcNAc = molecular target: Gal(b1-4)GlcNAc
# In short: as §1
# [14] = molecular target: Gal(b1-4)GlcNAc(a1-6)Gal(b1-4)GlcNAc
# In short: as §1
# Gal(b1-4)GlcNAc(b1-2)Man = molecular target: Gal(b1-4)GlcNAc(b1-2)Man
# In short: as §1
# [15] = molecular target: Gal(b1-4)GlcNAc(b1-2)Man(a1-3)Man(b1-4)GlcNAc(b1-4)GlcNAc
# In short: as §1
# [16] = molecular target: Gal(b1-4)GlcNAc(b1-2)Man(a1-3)[Gal(b1-4)GlcNAc(b1-2)Man(a1-6)]Man(b1-4)GlcNAc(b1-4)GlcNAc
# In short: as §1
# [17] = molecular target: Gal(b1-4)GlcNAc(b1-2)Man(a1-3)[Gal(b1-4)GlcNAc(b1-2)Man(a1-6)]Man(b1-4)GlcNAc(b1-4)[Fuc(a1-6)]GlcNAc
# In short: as §1
# [18] = molecular target: Gal(b1-4)GlcNAc(b1-2)Man(a1-3)[Gal(b1-4)GlcNAc(b1-2)Man(a1-6)][Gal(b1-4)GlcNAc(b1-4)]Man(b1-4)GlcNAc(b1-4)[Fuc(a1-6)]GlcNAc
# In short: as §1
# [19] = molecular target: Gal(b1-4)GlcNAc(b1-2)Man(a1-3)[Gal(b1-4)GlcNAc(b1-2)Man(a1-6)][GlcNAc(b1-4)]Man(b1-4)GlcNAc(b1-4)[Fuc(a1-6)]GlcNAc
# In short: as §1
# [20] = molecular target: Gal(b1-4)GlcNAc(b1-2)Man(a1-3)[GlcNAc(b1-2)Man(a1-6)]Man(b1-4)GlcNAc(b1-4)GlcNAc
# In short: as §1
# [21] = molecular target: Gal(b1-4)GlcNAc(b1-2)Man(a1-3)[GlcNAc(b1-4)][Gal(b1-4)GlcNAc(b1-2)Man(a1-6)]Man(b1-4)GlcNAc(b1-4)GlcNAc
# In short: as §1
# [22] = molecular target: Gal(b1-4)GlcNAc(b1-2)Man(a1-3)[Man(a1-6)]Man(b1-4)GlcNAc(b1-4)GlcNAc
# In short: as §1
# [23] = molecular target: Gal(b1-4)GlcNAc(b1-2)Man(a1-6)Man(b1-4)GlcNAc(b1-4)GlcNAc
# In short: as §1
# [24] = molecular target: Gal(b1-4)GlcNAc(b1-2)Man(a1-6)[GlcNAc(b1-2)Man(a1-3)]Man(b1-4)GlcNAc(b1-4)GlcNAc
# In short: as §1
# [25] = molecular target: Gal(b1-4)GlcNAc(b1-2)Man(a1-6)[Man(a1-3)]Man(b1-4)GlcNAc(b1-4)GlcNAc
# In short: as §1
# [26] = molecular target: Gal(b1-4)GlcNAc(b1-2)[Gal(b1-4)GlcNAc(b1-4)]Man(a1-3)[Gal(b1-4)GlcNAc(b1-2)Man(a1-6)]Man(b1-4)GlcNAc(b1-4)GlcNAc
# In short: as §1
# [27] = molecular target: Gal(b1-4)GlcNAc(b1-2)[Gal(b1-4)GlcNAc(b1-4)]Man(a1-3)[Gal(b1-4)GlcNAc(b1-2)[Gal(b1-4)GlcNAc(b1-6)]Man(a1-6)]Man(b1-4)GlcNAc(b1-4)GlcNAc
# In short: as §1
# [28] = molecular target: Gal(b1-4)GlcNAc(b1-2)[Gal(b1-4)GlcNAc(b1-4)]Man(a1-3)[GlcNAc(b1-4)][Gal(b1-4)GlcNAc(b1-2)Man(a1-6)]Man(b1-4)GlcNAc(b1-4)GlcNAc
# In short: as §1
# [29] = molecular target: Gal(b1-4)GlcNAc(b1-2)[Gal(b1-4)GlcNAc(b1-4)]Man(a1-3)[GlcNAc(b1-4)][Gal(b1-4)GlcNAc(b1-2)[Gal(b1-4)GlcNAc(b1-6)]Man(a1-6)]Man(b1-4)GlcNAc(b1-4)GlcNAc
# In short: as §1
# [30] = molecular target: Gal(b1-4)GlcNAc(b1-2)[Gal(b1-4)GlcNAc(b1-6)]Man(a1-6)[Gal(b1-4)GlcNAc(b1-2)Man(a1-3)]Man(b1-4)GlcNAc(b1-4)GlcNAc
# In short: as §1
# [31] = molecular target: Gal(b1-4)GlcNAc(b1-2)[Gal(b1-4)GlcNAc(b1-6)]Man(a1-6)[Gal(b1-4)GlcNAc(b1-2)Man(a1-3)]Man(b1-4)GlcNAc(b1-4)[Fuc(a1-6)]GlcNAc
# In short: as §1
# [32] = molecular target: Gal(b1-4)GlcNAc(b1-2)[Gal(b1-4)GlcNAc(b1-6)]Man(a1-6)[GlcNAc(b1-4)][Gal(b1-4)GlcNAc(b1-2)Man(a1-3)]Man(b1-4)GlcNAc(b1-4)GlcNAc
# In short: as §1
# [33] = molecular target: Gal(b1-4)GlcNAc(b1-2)[Gal(b1-4)GlcNAc(b1-6)]Man(a1-6)[GlcNAc(b1-4)][Gal(b1-4)GlcNAc(b1-2)[Gal(b1-4)GlcNAc(b1-4)]Man(a1-3)]Man(b1-4)GlcNAc(b1-4)[Fuc(a1-6)]GlcNAc
# In short: as §1
# [34] = molecular target: Gal(b1-4)GlcNAc(b1-3)Gal(b1-3)GalNAc
# In short: as §1
# [35] = molecular target: Gal(b1-4)GlcNAc(b1-3)Gal(b1-3)GlcNAc
# In short: as §1
# [36] = molecular target: Gal(b1-4)GlcNAc(b1-3)Gal(b1-4)Glc
# In short: as §1
# [37] = molecular target: Gal(b1-4)GlcNAc(b1-3)Gal(b1-4)GlcNAc
# In short: as §1
# [38] = molecular target: Gal(b1-4)GlcNAc(b1-3)Gal(b1-4)GlcNAc(b1-2)Man(a1-3)[Gal(b1-4)GlcNAc(b1-3)Gal(b1-4)GlcNAc(b1-2)Man(a1-6)]Man(b1-4)GlcNAc(b1-4)GlcNAc
# In short: as §1
# [39] = molecular target: Gal(b1-4)GlcNAc(b1-3)Gal(b1-4)GlcNAc(b1-2)Man(a1-3)[Gal(b1-4)GlcNAc(b1-3)Gal(b1-4)GlcNAc(b1-2)Man(a1-6)]Man(b1-4)GlcNAc(b1-4)[Fuc(a1-6)]GlcNAc
# In short: as §1
binder,measurement,setting,value
B1,glycan array binding signal (z-score),[1],0.736
same,glycan array binding signal (z-score),Gal(b1-3)GlcNAc6S,-0.149
same,glycan array binding signal (z-score),[2],-0.238
same,glycan array binding signal (z-score),[3],0.139
same,glycan array binding signal (z-score),[4],1.91
same,glycan array binding signal (z-score),[5],-0.667
same,glycan array binding signal (z-score),[6],-0.152
same,glycan array binding signal (z-score),[7],0.486
same,glycan array binding signal (z-score),[8],-0.348
same,glycan array binding signal (z-score),[9],-0.813
same,glycan array binding signal (z-score),[10],-0.72
same,glycan array binding signal (z-score),[11],-0.862
same,glycan array binding signal (z-score),Gal(b1-4)Gal,6.71
same,glycan array binding signal (z-score),[12],1.1
same,glycan array binding signal (z-score),[13],0.467
same,glycan array binding signal (z-score),Gal(b1-4)Glc,-0.205
same,glycan array binding signal (z-score),Gal(b1-4)Glc6S,-0.674
same,glycan array binding signal (z-score),Gal(b1-4)GlcNAc,-0.205
same,glycan array binding signal (z-score),[14],-0.513
same,glycan array binding signal (z-score),Gal(b1-4)GlcNAc(b1-2)Man,1.07
same,glycan array binding signal (z-score),[15],-0.333
same,glycan array binding signal (z-score),[16],-0.337
same,glycan array binding signal (z-score),[17],0.911
same,glycan array binding signal (z-score),[18],-0.652
same,glycan array binding signal (z-score),[19],-0.76
same,glycan array binding signal (z-score),[20],-0.185
same,glycan array binding signal (z-score),[21],-0.474
same,glycan array binding signal (z-score),[22],3.75
same,glycan array binding signal (z-score),[23],-0.175
same,glycan array binding signal (z-score),[24],-0.018
same,glycan array binding signal (z-score),[25],-0.57
same,glycan array binding signal (z-score),[26],0.034
same,glycan array binding signal (z-score),[27],-0.59
same,glycan array binding signal (z-score),[28],-0.22
same,glycan array binding signal (z-score),[29],-0.17
same,glycan array binding signal (z-score),[30],-0.272
same,glycan array binding signal (z-score),[31],-0.326
same,glycan array binding signal (z-score),[32],-0.237
same,glycan array binding signal (z-score),[33],-0.723
same,glycan array binding signal (z-score),[34],0.04
same,glycan array binding signal (z-score),[35],-0.634
same,glycan array binding signal (z-score),[36],-0.068
same,glycan array binding signal (z-score),[37],-0.047
same,glycan array binding signal (z-score),[38],-0.21
same,glycan array binding signal (z-score),[39],-0.278

# Pulled one by one from above:
binder,measurement,setting,value
B1,glycan array binding signal (z-score),[10],-0.72
same,glycan array binding signal (z-score),[33],-0.723
